For one molecule, Bulk density results are on record in patent US11020352B2, “Systems and methods for the fabrication of tablets, including pharmaceutical tablets” (Massachusetts Institute of Technology, priority 2017, dated 2021).

This series is described as follows: Bulk and flow properties of powders (FT4 Powder Rheometer). It is filed as physicochemical. To be noted: API/excipient powder.

In turn, `CN1C(=O)CN=C(c2ccccc2)c2cc(Cl)ccc21` [Diazepam (DIZ), Diazepam] displayed a Bulk density of 0.52 g/mL.
